Data on two molecules can be found in publication PMC7822926.

These are yes or no findings as the source states them, for the method shown. For part of these data: In cells and extracts the contact can be indirect. Some results given as binding are weak or reduced against the parent protein; the word gives no strength. Where a sequence is shown, tags or fusion partners need not be part of it.

Test [1] concerns the target T1, Mdm34-GST (Schizosaccharomyces pombe) (UniProt Q9UUC9).
T1 sequence: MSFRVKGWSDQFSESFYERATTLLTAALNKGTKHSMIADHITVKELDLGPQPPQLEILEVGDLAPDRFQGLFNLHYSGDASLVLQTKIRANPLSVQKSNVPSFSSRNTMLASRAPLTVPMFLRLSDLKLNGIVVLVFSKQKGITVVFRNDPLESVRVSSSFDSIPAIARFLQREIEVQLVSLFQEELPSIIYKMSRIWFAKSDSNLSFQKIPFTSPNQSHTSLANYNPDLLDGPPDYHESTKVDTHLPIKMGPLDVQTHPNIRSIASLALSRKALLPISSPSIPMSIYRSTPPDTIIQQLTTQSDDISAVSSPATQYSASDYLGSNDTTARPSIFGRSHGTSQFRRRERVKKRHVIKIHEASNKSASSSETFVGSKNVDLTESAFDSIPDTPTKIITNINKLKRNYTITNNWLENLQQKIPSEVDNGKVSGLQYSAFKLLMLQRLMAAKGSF
The test is described as follows: pull-down; GST proteins bound to Glutathione Sepharose 4B incubated with equal amount of His-GFP-Emr1 eluted from nickel resins in 1X TBS plus 0.1% Triton X-100, 2 h at 4 °C; washed with TBS, 0.1% Triton X-100, 10 mM imidazole; western blot with anti-His and anti-GST; both purified.

Test [2] addresses T2, Mdm12-GST (Schizosaccharomyces pombe) (UniProt Q92377).
T2 sequence: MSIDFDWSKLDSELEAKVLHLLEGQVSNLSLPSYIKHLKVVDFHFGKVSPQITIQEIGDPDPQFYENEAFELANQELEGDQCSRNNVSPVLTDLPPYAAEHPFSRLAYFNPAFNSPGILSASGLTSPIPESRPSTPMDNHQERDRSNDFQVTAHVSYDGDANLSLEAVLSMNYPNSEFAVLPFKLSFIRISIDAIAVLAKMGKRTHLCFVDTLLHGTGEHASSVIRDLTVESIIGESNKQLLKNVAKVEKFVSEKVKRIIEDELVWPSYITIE
The description is as above.

Test [3] concerns the target T3, GFP-Emr1 (Schizosaccharomyces pombe) (UniProt Q4ZGE1).
T3 sequence: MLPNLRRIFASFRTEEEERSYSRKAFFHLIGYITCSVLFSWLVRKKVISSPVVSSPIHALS
The test is described as follows: co-IP; S. pombe cell lysates (TBS lysis buffer, 0.3% Triton X-100, protease inhibitors) incubated 1 h at 4 °C with Dynabeads Protein G bound with anti-GFP antibody; washed with TBS 0.1% Triton X-100; western blot with anti-GFP and anti-tdTomato. A general note: In western blotting, separated proteins are transferred to a membrane and probed.

B1: His-GFP-Emr1 (protein, UniProt Q4ZGE1 1-61)
chain: MLPNLRRIFASFRTEEEERSYSRKAFFHLIGYITCSVLFSWLVRKKVISSPVVSSPIHALS
As to B1, the binding entry in test [1] and in test [2] was “binds” each time.

B2: Mdm12-tdTomato (protein, UniProt Q92377 1-273)
chain: MSIDFDWSKLDSELEAKVLHLLEGQVSNLSLPSYIKHLKVVDFHFGKVSPQITIQEIGDPDPQFYENEAFELANQELEGDQCSRNNVSPVLTDLPPYAAEHPFSRLAYFNPAFNSPGILSASGLTSPIPESRPSTPMDNHQERDRSNDFQVTAHVSYDGDANLSLEAVLSMNYPNSEFAVLPFKLSFIRISIDAIAVLAKMGKRTHLCFVDTLLHGTGEHASSVIRDLTVESIIGESNKQLLKNVAKVEKFVSEKVKRIIEDELVWPSYITIE
As to B2, the binding result in test [3] is recorded as “binds”.
